In data set [1] the test system is Douglas fir tissue (DF-7A). The data set is described as follows: Changes of carbohydrates in suspension media (enzymatic BioAnalysis). The settings on record: for Sugar in medium After use (%) / Decreased (%): DF-7A, one week; for Sugar in medium After use (%): before use 0.5% glucose, 0.5% galactose, 1% lactose, 0.5% mannitol; for metabolism by Douglas fir tissue: conclusion in words. The data set is classed as cell-based, Pseudotsuga menziesii (Douglas fir).

Data set [2] concerns loblolly pine lines LP3 and LP6. The data set is described as follows: Carbohydrate metabolism: sugar analysis of liquid media. The data set is classed as cell-based, Pinus taeda (loblolly pine). The settings on record: for % sugar missing (utilised): sugar in media at the start: sucrose 1.0%, lactose 1.5%.

The source of these data is patent US7906334B2, “Method for reproducing conifers by somatic embryogenesis using lactose as a carbon source” (Cellfor Inc., priority 2003, dated 2011).

For `O=C[C@H](O)[C@@H](O)[C@@H](O)[C@H](O)CO` [Galactose], in data set [1], the “Sugar in medium After use (%)” value worked out at 0.097% and the “metabolism by Douglas fir tissue” value is reported as “can be utilised slowly”.
Regarding `OC[C@H]1O[C@@H](O[C@H]2[C@H](O)[C@@H](O)C(O)O[C@@H]2CO)[C@H](O)[C@@H](O)[C@H]1O` (some centres unmarked) [Lactose], in data set [2], the “% sugar missing (utilised)” value was determined as 12%. Also, in data set [1], the “Decreased (%)” value stood at 0.01%, the “Sugar in medium After use (%)” value is 0.99% and the “metabolism by Douglas fir tissue” value is “not metabolised”.
Turning to `OC[C@H]1O[C@@](CO)(O[C@H]2O[C@H](CO)[C@@H](O)[C@H](O)[C@H]2O)[C@@H](O)[C@@H]1O` [Sucrose, sucrose], the “day at which sucrose was completely hydrolysed” value in data set [2] (both lines, first week of culture in TX maintenance medium) came out at 5 days. Moreover, the “% sugar missing (utilised)” value in data set [2] is listed as 30%.
In the case of `OC[C@@H](O)[C@@H](O)[C@H](O)[C@H](O)CO` [mannitol, reference compound], in data set [1], the “Decreased (%)” value was 0%, the “Sugar in medium After use (%)” value was 0.5% and the “metabolism by Douglas fir tissue” value was “not metabolised”.
